Experiment [1] addresses T1, full-length Myc-HIM-18 (C. elegans) (UniProt Q22145).
T1 sequence: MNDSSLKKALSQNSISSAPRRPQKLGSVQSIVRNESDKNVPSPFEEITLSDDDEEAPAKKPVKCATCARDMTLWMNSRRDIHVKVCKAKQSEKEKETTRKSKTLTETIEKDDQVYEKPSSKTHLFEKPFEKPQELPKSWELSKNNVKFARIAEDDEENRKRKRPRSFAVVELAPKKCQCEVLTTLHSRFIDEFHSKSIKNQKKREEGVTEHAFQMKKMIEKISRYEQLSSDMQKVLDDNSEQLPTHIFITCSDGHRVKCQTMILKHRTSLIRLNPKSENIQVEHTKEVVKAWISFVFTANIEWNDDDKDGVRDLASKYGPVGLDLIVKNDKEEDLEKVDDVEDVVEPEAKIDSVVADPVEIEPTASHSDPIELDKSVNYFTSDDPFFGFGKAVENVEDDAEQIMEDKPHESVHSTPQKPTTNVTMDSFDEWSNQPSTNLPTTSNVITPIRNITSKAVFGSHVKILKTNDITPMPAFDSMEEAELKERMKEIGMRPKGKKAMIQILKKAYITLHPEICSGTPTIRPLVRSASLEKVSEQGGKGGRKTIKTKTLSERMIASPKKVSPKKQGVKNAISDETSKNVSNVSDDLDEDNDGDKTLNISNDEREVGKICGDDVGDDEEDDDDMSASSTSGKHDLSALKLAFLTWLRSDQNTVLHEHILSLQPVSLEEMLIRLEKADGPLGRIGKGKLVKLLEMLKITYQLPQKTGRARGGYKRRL
Nature of the experiment: co-IP; HA- and Myc-tagged constructs co-transfected into HEK293T; lysis in 50 mM Tris-HCl pH 7.5, 150 mM NaCl, 0.5% NP-40, 10 mM NaF, 1 mM EDTA; precipitated with anti-HA resin or anti-myc resin, washed 4-5X with lysis buffer, immunoblotted.

Experiment [2] deals with T2, full-length HIM-18 fused to GAL4-AD (C. elegans) (UniProt Q22145).
T2 sequence: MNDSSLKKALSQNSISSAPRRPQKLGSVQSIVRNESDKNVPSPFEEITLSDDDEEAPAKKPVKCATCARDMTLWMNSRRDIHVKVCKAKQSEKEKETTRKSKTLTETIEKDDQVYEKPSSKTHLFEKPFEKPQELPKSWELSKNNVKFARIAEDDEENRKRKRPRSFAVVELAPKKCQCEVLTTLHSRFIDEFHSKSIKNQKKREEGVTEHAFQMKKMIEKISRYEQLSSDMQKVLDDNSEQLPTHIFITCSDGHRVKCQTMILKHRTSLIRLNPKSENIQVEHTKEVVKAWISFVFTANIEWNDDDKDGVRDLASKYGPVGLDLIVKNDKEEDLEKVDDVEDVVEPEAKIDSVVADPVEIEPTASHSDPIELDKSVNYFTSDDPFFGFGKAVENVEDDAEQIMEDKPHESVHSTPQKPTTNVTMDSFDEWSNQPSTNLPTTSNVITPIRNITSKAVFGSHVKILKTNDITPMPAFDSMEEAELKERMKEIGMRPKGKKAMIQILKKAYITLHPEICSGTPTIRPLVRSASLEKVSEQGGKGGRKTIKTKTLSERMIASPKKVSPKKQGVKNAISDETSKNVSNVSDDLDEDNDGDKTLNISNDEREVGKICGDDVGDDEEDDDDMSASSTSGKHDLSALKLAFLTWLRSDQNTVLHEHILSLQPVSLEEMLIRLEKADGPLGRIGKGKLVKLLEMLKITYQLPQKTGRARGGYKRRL
Nature of the experiment: two-hybrid; HIM-18 fused to GAL4-AD, SLX-1 constructs fused to GAL4-DB; mated yeast Y8800 x Y8930; growth on -His + 1 mM 3-AT plates at 30°C.

Results are given in words; binding and its absence hold for the method and conditions named. For some assays here: Binding seen in cells or lysates may run through a third protein. Tags and fused reporters may be left off the sequences shown.

B1: HA-SLX-1-N (domain or fragment, UniProt P91351 1-272)
chain: METFILSSDSDDDSGPPPSKRRTIEGIPRSFSGDKKIRFSFGASNMSQDTTQEIIPEDTDTVPLTIPSTPALSGKFDSKTPKSVRRRSVSMSCFTPIVETINQPPTNQACSSFLQKEYNFHDLSSDEEGGDGGAGCSKDEDKIIEDNLNLRALLSPEKKKRKEKIEEVQNEFYGVYCLISRSDRPCYKNRCYIGYTVDPNRRIMQHNGGRDKGGAKKTDSRGPWDMVCVVHGFPNHVAALHFEWAWQNPLVSKSLKEKQLRKERKETPFAFQ
For the molecule B1, in experiment [1], the binding entry was “no binding”.

B2: SLX-1N^1–272 fused to GAL4-DB (domain or fragment, UniProt P91351 1-272)
chain: METFILSSDSDDDSGPPPSKRRTIEGIPRSFSGDKKIRFSFGASNMSQDTTQEIIPEDTDTVPLTIPSTPALSGKFDSKTPKSVRRRSVSMSCFTPIVETINQPPTNQACSSFLQKEYNFHDLSSDEEGGDGGAGCSKDEDKIIEDNLNLRALLSPEKKKRKEKIEEVQNEFYGVYCLISRSDRPCYKNRCYIGYTVDPNRRIMQHNGGRDKGGAKKTDSRGPWDMVCVVHGFPNHVAALHFEWAWQNPLVSKSLKEKQLRKERKETPFAFQ
As for B2, the binding result in experiment [2] is “no binding”.

Values taken from PMC3426554.
